In article PMC3916239, “Distinct DNA Binding Sites Contribute to the TCF Transcriptional Switch in C. elegans and Drosophila”:

Molecular target: T1, POP-1 (Caenorhabditis elegans) (UniProt Q10666)
T1 sequence (looked up, limits assumed): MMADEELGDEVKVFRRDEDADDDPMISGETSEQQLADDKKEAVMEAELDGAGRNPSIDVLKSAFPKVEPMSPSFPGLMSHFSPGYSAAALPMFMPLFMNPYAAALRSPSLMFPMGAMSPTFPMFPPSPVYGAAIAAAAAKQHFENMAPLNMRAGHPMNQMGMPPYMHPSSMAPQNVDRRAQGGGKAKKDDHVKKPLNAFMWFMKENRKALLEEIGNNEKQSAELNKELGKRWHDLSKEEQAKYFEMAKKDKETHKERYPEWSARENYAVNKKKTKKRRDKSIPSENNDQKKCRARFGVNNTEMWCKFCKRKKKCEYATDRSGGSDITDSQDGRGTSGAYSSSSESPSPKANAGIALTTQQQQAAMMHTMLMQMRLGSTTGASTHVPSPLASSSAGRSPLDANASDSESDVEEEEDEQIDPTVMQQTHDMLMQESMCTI
Test: EMSA
Conditions: 10 mM Tris-HCl pH 7.5, 50 mM KCl, 1 mM DTT, 5 mM MgCl2, 0.05% NP-40, 50 ug/ml poly(dI-dC), glycerol, 20 ul, 5 min on ice then 25 min room temperature, 6% native gel, recombinant protein, protein details: 6xHis, label: biotin

“ACACGTTCTGGCCACATTTTCTTTGATTTTTTCTGATTTCGCCGACTTTTTTC (double strand) [K08D12.3 short probe (no Helper1)]”: binds more weakly.
“TACGAGAAGCGGCGATTCAAGAGTTTCAAATAACTTCTCCACCGCCTTTTGAAGTTGCCGAAAATAGTTAAA (double strand) [ceh-22b control probe (72 nt as printed)]”: binds (positive control).

For at least one entry, the source does not settle the construct or the ends of the probe. A weaker result is weaker than the reference pair of the same experiment. Tags and fusion partners may be left off the protein sequences shown. At least one verdict was read from the data and is not stated in words by the source.
